# Test results as given in patent US20110263507A1 (priority 2007, published 2011).
# Sequences of proteins named here, by UniProt entry; tags and fusion partners are left off. A change or cut given only in a name is not applied to a line headed by its entry.
# UniProt O95665: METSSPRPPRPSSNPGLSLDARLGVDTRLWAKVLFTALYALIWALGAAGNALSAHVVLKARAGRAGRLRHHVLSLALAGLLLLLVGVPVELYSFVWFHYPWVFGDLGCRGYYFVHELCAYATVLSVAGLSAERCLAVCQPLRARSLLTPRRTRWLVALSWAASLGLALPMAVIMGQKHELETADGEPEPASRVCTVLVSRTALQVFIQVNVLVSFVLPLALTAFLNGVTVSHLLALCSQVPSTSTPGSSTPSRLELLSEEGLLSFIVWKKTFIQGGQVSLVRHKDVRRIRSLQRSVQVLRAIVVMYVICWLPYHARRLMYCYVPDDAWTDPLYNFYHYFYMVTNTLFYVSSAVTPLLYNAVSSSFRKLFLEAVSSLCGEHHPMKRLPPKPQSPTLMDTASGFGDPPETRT
# UniProt P30989, whole entry: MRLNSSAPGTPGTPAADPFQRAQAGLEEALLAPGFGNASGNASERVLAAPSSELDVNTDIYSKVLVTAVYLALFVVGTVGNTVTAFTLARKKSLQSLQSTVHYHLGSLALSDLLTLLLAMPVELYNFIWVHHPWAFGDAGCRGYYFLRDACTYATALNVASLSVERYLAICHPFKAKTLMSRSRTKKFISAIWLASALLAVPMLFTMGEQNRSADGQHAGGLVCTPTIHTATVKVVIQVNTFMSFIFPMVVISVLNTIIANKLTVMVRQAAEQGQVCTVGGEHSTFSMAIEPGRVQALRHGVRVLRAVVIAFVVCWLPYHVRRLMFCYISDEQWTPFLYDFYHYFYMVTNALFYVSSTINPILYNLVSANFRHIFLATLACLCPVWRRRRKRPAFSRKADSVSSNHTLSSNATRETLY
# Like-named read-outs stand apart in the source and are kept apart here. Not every detail of the peptide structures is certain; ends, links or a residue may be inferred. Some results were stated once for a whole list of compounds, not compound by compound. Where a SMILES comes first, the peptide text is derived from it. Where no end group is shown, it is not given here. [ ]: non-standard residue; d: D form. Bpa = N[C@@H](Cc1ccc(C(=O)c2ccccc2)cc1)C(=O)O; pGlu = O=C1CC[C@@H](C(=O)O)N1
# Columns and labels:
# hNTS2 = target: T1, hNTS2 (Homo sapiens, UniProt O95665); assay: Radioligand competition binding with [3H]NT, membranes of CHO-K1 cells expressing hNTS2
# T1 construct: expressed in transfected cells; host or cells: CHO-K1
# hNTS1 = target: T2, hNTS1 (Homo sapiens, UniProt P30989); assay: Radioligand competition binding with [3H]NT, membranes of CHO-K1 cells expressing hNTS1
# T2 construct: expressed in transfected cells; host or cells: CHO-K1
# Description: CHO-K1 cells that had been stably transfected separately with the hNTS1 or hNTS2 genes were cultured in 150 mm (500 cm^2) Petri plates with 35 ml of Dulbecco's modified Eagle's medium containing 100 μM minimal essential medium nonessential amino acids (Life Technologies, Inc.) supplemented with 5% (v/v) FetalClone II bovine serum product (Hyclone Labs, Logan, Utah). […] The cellular pellet (in Tris-HCl buffer) was stored at […] until the radioligand binding was performed.
# For use in binding assays, crude membrane preparations were prepared by centrifugation of the cellular pellet at 35,600×g for 10 min. The supernatant was decanted and discarded, and the cellular pellet was resuspended in 1 ml of Tris-HCl buffer followed by homogenization with a Brinkmann Polytron at setting 5.5 for 15 s. Centrifugation was repeated as above, the supernatant was decanted and discarded, and the cellular pellet was resuspended in 1 ml of Tris-HCl buffer followed by homogenization. Centrifugation was repeated a third time, the supernatant was discarded, and the final cellular pellet was suspended in 0.5-2.5 ml of Tris-HCl buffer. Protein concentration of the membrane preparation was estimated by the method of Lowry et al. using bovine serum albumin as a standard.
# Incubation was at 20° C. for 40 min. […] Data were analyzed using the LIGAND program.
compound,measurement,setting,value
"CC[C@H](C)[C@H](NC(=O)[C@H](Cc1ccc(O)cc1)NC(=O)[C@@H]1CCCN1C(=O)[C@H](CCCNC(=N)N)NC(=O)[C@H](Cc1ccc(C(=O)c2ccccc2)cc1)NC(=O)[C@@H]1CCCN1C(=O)[C@H](CCCCN)NC(=O)[C@H](CC(N)=O)NC(=O)[C@H](CCC(=O)O)NC(=O)[C@H](Cc1ccc(O)cc1)NC(=O)[C@H](CC(C)C)NC(=O)[C@@H]1CCC(=O)N1)C(=O)N[C@@H](CC(C)C)C(=O)O [NT54, [BPA^8]NT(1-13)] ([pGlu]LYENKP[Bpa]RPYIL-OH; C-terminus assumed)",Kd,hNTS2; read-out: Kd at hNTS2,660 nM
same,Kd,hNTS1; read-out: Kd at hNTS1,18.6 nM
"CC[C@H](C)[C@H](NC(=O)[C@H](Cc1ccc(O)cc1)NC(=O)[C@@H]1CCCN1C(=O)[C@H](Cc1ccc(C(=O)c2ccccc2)cc1)NC(=O)[C@H](CCCNC(=N)N)NC(=O)[C@@H]1CCCN1C(=O)[C@H](CCCCN)NC(=O)[C@H](CC(N)=O)NC(=O)[C@H](CCC(=O)O)NC(=O)[C@H](Cc1ccc(O)cc1)NC(=O)[C@H](CC(C)C)NC(=O)[C@@H]1CCC(=O)N1)C(=O)N[C@@H](CC(C)C)C(=O)O [NT56, [BPA^9]NT(1-13)] ([pGlu]LYENKPR[Bpa]PYIL-OH; C-terminus assumed)",Kd,"hNTS2; read-out: hNTS2 Geometric Mean ∀ SEM (equilibrium dissociation constant Kd), Table 2",330 ± 40 nM
same,Kd,"hNTS1; read-out: hNTS1 Geometric Mean ∀ SEM (equilibrium dissociation constant Kd), Table 2, n.d. = no detectable binding at 1 μM, †/* values published before by the same laboratory",72 ± 8 nM
"RRPAIL [NT08, [Ala^11]NT(8-13)]",selectivity for hNTS2,hNTS2; text,≥ 10 fold
